Results deposited as PubChem BioAssay AID743121 (NCATS, 2013)
Purpose: 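Partners whose loss is lethal together with topoisomerase I blockade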 (primary screen). Cells: MDA-MB-231 cells, a human breast cancer line. Reagent: single siRNA against human genes, 20 nM siRNA (0.8 pmol per well). Time to read-out: 120 h (drug added 48 h after transfection, read 72 h later). Treatment: camptothecin 20 nM (about EC30) for 72 h; vehicle 0.1% DMSO in parallel plates. Detection: 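Cell viability by ATP luminescence (CellTiter-Glo) as % of non-targeting siRNA wells, and the log2 ratio of viability without drug over viability with camptothecin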. Scale: log2 vehicle/camptothecin viability: higher = stronger sensitisation to camptothecin; viability with camptothecin and viability without drug: higher = more viable cells. Rule for the call: 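Active genes have an RSA gene-level p-value below 0.001, computed from the ratios of their separate siRNAs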.
This is an unselected part of about 26,000 deposited reagents. 167 of them (0.63%) were called active. 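Calls are per gene from RSA p-values that are not deposited; an individual active-marked siRNA can sensitise only weakly.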 The numbers tell different reagents against one gene apart. No sequences are given here.

log2 vehicle/camptothecin viability | viability with camptothecin (% of control) | viability without drug (% of control) | call | gene | reagent
-0.0691 | 77.6 | 74 | inactive | UBE2B | 1
-0.589 | 81.7 | 54.3 | inactive | UBE2B | 2
-0.246 | 63.8 | 53.8 | inactive | UBE2B | 3
-0.0988 | 60.2 | 56.2 | inactive | PAX2 | 1
0.225 | 29.3 | 34.2 | inactive | PAX2 | 2
-0.808 | 75.1 | 42.9 | inactive | PAX2 | 3
0.0989 | 97.4 | 104 | inactive | PAX2 | 4
0.322 | 73.3 | 91.6 | inactive | USP14 | 1
0.0273 | 108 | 110 | inactive | USP14 | 2
-0.0748 | 115 | 109 | inactive | USP14 | 3
-0.175 | 119 | 105 | inactive | USP14 | 4
-0.312 | 138 | 111 | inactive | PDIK1L | 1
-0.219 | 132 | 114 | inactive | PDIK1L | 2
-0.102 | 87.9 | 81.9 | inactive | PDIK1L | 3
-0.0379 | 68.7 | 66.9 | inactive | PDIK1L | 4
-0.342 | 119 | 93.6 | inactive | TYROBP | 1
0.0306 | 99.6 | 102 | inactive | TYROBP | 2
-0.101 | 67.4 | 62.8 | inactive | TYROBP | 3
-0.184 | 98.5 | 86.7 | inactive | TYROBP | 4
0.819 | 7.18 | 12.7 | inactive | UBB | 1
-0.423 | 75.3 | 56.2 | inactive | UBB | 2
-0.275 | 104 | 86.3 | inactive | UBB | 3
-0.392 | 111 | 84.9 | inactive | OR6C2 | 1
-0.0312 | 70.7 | 69.2 | inactive | OR6C2 | 2
-0.0681 | 49.7 | 47.4 | inactive | OR6C2 | 3
-0.176 | 95 | 84.1 | inactive | OR6C2 | 4
-0.334 | 19.2 | 15.2 | inactive | MCL1 | 1
0.698 | 36.4 | 59.1 | inactive | MCL1 | 2
0.387 | 7.57 | 9.9 | inactive | MCL1 | 3
0.0151 | 61 | 61.6 | inactive | FBXL8 | 1
-0.0896 | 45.4 | 42.6 | inactive | FBXL8 | 2
0.0142 | 64.9 | 65.5 | inactive | FBXL8 | 3
-0.449 | 40.6 | 29.7 | inactive | CD81 | 1
-0.0604 | 114 | 110 | inactive | CD81 | 2
-0.302 | 115 | 93.5 | inactive | CD81 | 3
-0.37 | 80.9 | 62.6 | inactive | CD81 | 4
0.247 | 28.2 | 33.5 | inactive | MXD1 | 1
0.21 | 25.3 | 29.2 | inactive | MXD1 | 2
-0.57 | 96.7 | 65.1 | inactive | MXD1 | 3
0.276 | 85.6 | 104 | inactive | MXD1 | 4
-0.236 | 87.6 | 74.4 | inactive | ANK2 | 1
-0.139 | 97.4 | 88.5 | inactive | ANK2 | 2
-0.21 | 84.8 | 73.3 | inactive | ANK2 | 3
-0.336 | 114 | 90.2 | inactive | CYP39A1 | 1
0.0437 | 81.2 | 83.7 | inactive | CYP39A1 | 2
-0.38 | 99.6 | 76.5 | inactive | CYP39A1 | 3
-0.243 | 74.7 | 63.2 | inactive | CYP39A1 | 4
-0.135 | 109 | 99 | inactive | AGO2 | 1
-0.00622 | 89.6 | 89.2 | inactive | AGO2 | 2
-0.21 | 108 | 93.4 | inactive | AGO2 | 3
0.161 | 103 | 115 | inactive | AGO2 | 4
-0.203 | 106 | 91.7 | inactive | ADGRG3 | 1
0.0192 | 53.2 | 53.9 | inactive | ADGRG3 | 2
0.17 | 50.4 | 56.7 | inactive | ADGRG3 | 3
-0.689 | 87 | 54 | inactive | ADGRG3 | 4
-0.455 | 83.3 | 60.8 | inactive | TXNRD1 | 1
-0.179 | 56 | 49.5 | inactive | TXNRD1 | 2
-0.000268 | 106 | 106 | inactive | TXNRD1 | 3
0.242 | 71 | 84 | inactive | TXNRD1 | 4
-0.953 | 67.2 | 34.7 | inactive | CDC27 | 1
-1.21 | 57.2 | 24.7 | inactive | CDC27 | 2
-0.521 | 74.3 | 51.8 | inactive | CDC27 | 3
-0.0159 | 88.4 | 87.5 | inactive | CDC27 | 4
-0.37 | 70.4 | 54.5 | inactive | HTR3B | 1
-0.00804 | 61.1 | 60.8 | inactive | HTR3B | 2
-0.0288 | 19.5 | 19.2 | inactive | HTR3B | 3
-0.147 | 84.8 | 76.6 | inactive | HTR3B | 4
-0.622 | 92.4 | 60.1 | inactive | FBXO28 | 1
0.416 | 51.4 | 68.6 | inactive | FBXO28 | 2
-0.0156 | 113 | 112 | inactive | FBXO28 | 3
0.453 | 22.4 | 30.7 | inactive | FBXO28 | 4

Entries above whose gene name starts with F or f:
log2 vehicle/camptothecin viability | viability with camptothecin (% of control) | viability without drug (% of control) | call | gene | reagent
0.0151 | 61 | 61.6 | inactive | FBXL8 | 1
-0.0896 | 45.4 | 42.6 | inactive | FBXL8 | 2
0.0142 | 64.9 | 65.5 | inactive | FBXL8 | 3
-0.622 | 92.4 | 60.1 | inactive | FBXO28 | 1
0.416 | 51.4 | 68.6 | inactive | FBXO28 | 2
-0.0156 | 113 | 112 | inactive | FBXO28 | 3
0.453 | 22.4 | 30.7 | inactive | FBXO28 | 4
